# Measured values: PubChem BioAssay AID493014 (National Center for Advancing Translational Sciences (NCATS), 2011)
# Values joined by “and” are separate entries in the source; they are usually repeats but may differ in a detail not shown here. Identical values can stand only once. Some of the results follow. Further columns of the screen follow, without active or inactive calls. Most of these compounds were active or inconclusive in the main read-out, so they are no random draw. Potencies come from curve fits of mixed quality, noted in brackets.
# Assay: qHTS Assay to Find Inhibitors of Chronic Active B-Cell Receptor Signaling
# Details: ABC-DLBCL IkBa-CBG/CBR reporter, luminescence ratio (green luciferase fused to IkBa over red control in TMD8 lymphoma cells), 4 h
# In short: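 Doxycycline induced both beetle luciferases in TMD8 lymphoma cells; IKK-driven degradation limits the IkappaBalpha-fused green signal, while red luminescence normalises for cell number and nonspecific effects. Compounds tested up to 46 uM, 4 hrs.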
# [1] = measured here: CBR red luminescence, cell number
# [2] = measured here: IkBa-CBG green luminescence
SMILES,AC50 [1],AC50 [2]
CC(=O)OCC(=O)[C@@]1(O)CC[C@H]2[C@@H]3CCC4=CC(=O)C=C[C@]4(C)[C@H]3[C@@H](O)C[C@@]21C,"0.116 µM [rising, full curve]","2.31 µM [falling, partial curve]"
Cc1cc2nc(-c3ccc(SCc4ccc(C#N)cc4)nc3)[nH]c2cc1C,"8.91 µM [falling, partial curve, poor fit]",
O=C(Nc1ccc(Cl)c([N+](=O)[O-])c1)C(Sc1ccccc1)c1ccccc1 (centres undefined),"11.6 µM [falling, partial curve]","10.3 µM [rising, partial curve, poor fit]"
COc1cc(CCC(=O)NCc2ccc3c(c2)CCN3C(=O)c2cccc(C)c2)cc(OC)c1OC,"28.2 µM [falling, partial curve, poor fit]",
CCS(=O)(=O)N1CCCC(C(=O)NC2CCCC2)C1 (centres undefined),"3.16 µM [rising, partial curve, poor fit]",
Cc1ccc(S(=O)(=O)N(CCC#N)C2CCCCC2)c2nsnc12,"3.66 µM [rising, partial curve, poor fit]",
CCOC(=O)c1c(C)[nH]c(C(C)=NNC(=O)c2cccs2)c1C,"32.6 µM [falling, single point]",
Cc1ccc2nc(-c3ccccc3)cc(C(=O)O)c2c1,"7.94 µM [falling, partial curve, poor fit]",
CCOC(=O)C1=C(c2ccccc2)N=c2s/c(=C\c3cc(OC)c(OC)c(OC)c3)c(=O)n2C1c1cccs1 (centres undefined),"6.31 µM [falling, partial curve, poor fit]",
CCc1cnc2c(c1SCC(=O)NCc1ccccc1)c(=O)n(C)c(=O)n2C,"22.4 µM [rising, single point]",
COC(=O)c1sccc1NC(=O)Nc1cc(C)ccc1OC,"15.8 µM [falling, single point]",
Cc1ccc(-c2csc(NC3OC(=O)c4ccccc43)n2)cc1 (centres undefined),"5.01 µM [falling, full curve, poor fit]",
Cc1ccc(O)c(C(=O)c2cc(C#N)c3nc4ccccc4n3c2)c1,"1.41 µM [rising, partial curve, poor fit]",
O=C1CC(Nc2ccc(N3CCOCC3)cc2)C(=O)N1CCc1ccccc1 (centres undefined),"2.06 µM [rising, partial curve]",
Cc1nn(-c2ccccc2)c(C)c1/C=N/NC(=O)CSc1nnc(SCc2ccc(Cl)cc2)s1,"18.4 µM [falling, partial curve, poor fit]",
CC1=CCC2C(=O)N(c3cccc(C(=O)NCc4ccccc4)c3)C(=O)C2C1 (centres undefined),"17.8 µM [rising, partial curve, poor fit]",

SMILES,AC50 [1],AC50 [2]
Cc1ccc(C(=O)Nc2nnc(C3CCCCC3)s2)o1,"23.1 µM [falling, partial curve, poor fit]",
Cc1c(CCOC(=O)CC23CC4CC(CC(C)(C4)C2)C3)sc[n+]1Cc1ccc([N+](=O)[O-])cc1,"17.8 µM [falling, partial curve, poor fit]",
CCOc1ccc(NC(=O)NCc2cccn2C)cc1,"35.5 µM [falling, single point]",
COC(=O)C1=C(C)N(Cc2ccccc2)C(=S)N[C@H]1c1ccc(Br)cc1,"15.8 µM [falling, partial curve, poor fit] and 6.51 µM [falling, partial curve]",
COc1ccc(NC(=O)CN(c2ccc([N+](=O)[O-])cc2)S(=O)(=O)c2ccccc2)cc1,"23.1 µM [falling, single point]",
CCOc1ccc(/C=C2/SC(=S)N(C(C(=O)O)c3ccccc3)C2=O)cc1OCC (centres undefined),"35.5 µM [falling, single point]","31.6 µM [rising, partial curve, poor fit]"
COCc1ccc(C(=O)NC2CCCc3c2cnn3-c2cc(C)cc(C)c2)s1 (centres undefined),"35.5 µM [falling, partial curve, poor fit]",
COc1ccccc1C(=O)NCC(c1ccco1)N1CCc2ccccc21 (centres undefined),"16.4 µM [falling, single point]",
O=C(Nc1ccccc1F)c1oc2ccccc2c1NC(=O)C1CC1,"17.8 µM [falling, partial curve, poor fit]",
Cc1cc(Nc2cnc3ccccc3n2)n(-c2ccccc2)n1,"7.94 µM [falling, partial curve]",
COC(=O)c1ccc(NC(=O)c2ccccc2SC)cc1,"4.47 µM [falling, partial curve]",
O=C(Nc1nccs1)c1cc2c(s1)CCCCC2,"1.16 µM [falling, partial curve]",
CC(=O)Nc1ccc(C(=O)OCC(=O)Nc2c(F)cccc2F)cc1,"11.2 µM [rising, partial curve, poor fit]",
Cc1n[nH]c(C)c1S(=O)(=O)NCCc1ccc(Cl)cc1,"29.1 µM [falling, single point]",
COc1ccc(/C(C)=N/Nc2ccc(C(=O)O)cc2)c(OC)c1,"0.0291 µM [falling, full curve]",
